Measurements reported in patent US20240034757A1.
Residue numbers refer to the chain shown, from its start. These are yes or no findings as the source states them, for the method shown.

Sequences of proteins named here, by UniProt entry; tags and fusion partners are left off. Residues count along the entry.
UniProt O43927, residues 23-109: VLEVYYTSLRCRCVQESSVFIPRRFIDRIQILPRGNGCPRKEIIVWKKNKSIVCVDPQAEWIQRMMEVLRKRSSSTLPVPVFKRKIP
UniProt Q9NRJ3, residues 23-127: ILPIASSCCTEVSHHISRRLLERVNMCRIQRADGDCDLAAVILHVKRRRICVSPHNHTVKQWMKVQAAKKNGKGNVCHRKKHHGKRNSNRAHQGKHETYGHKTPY
UniProt O95715, residues 35-111: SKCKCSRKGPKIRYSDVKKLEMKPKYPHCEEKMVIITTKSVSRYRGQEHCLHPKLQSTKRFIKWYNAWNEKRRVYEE
UniProt O00175, residues 27-104: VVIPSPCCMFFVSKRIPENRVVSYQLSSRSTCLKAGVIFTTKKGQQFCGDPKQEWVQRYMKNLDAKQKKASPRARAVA
UniProt P80162, residues 38-114: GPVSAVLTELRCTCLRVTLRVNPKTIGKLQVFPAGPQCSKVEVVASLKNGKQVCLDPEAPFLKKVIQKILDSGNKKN
UniProt P42830, residues 41-114: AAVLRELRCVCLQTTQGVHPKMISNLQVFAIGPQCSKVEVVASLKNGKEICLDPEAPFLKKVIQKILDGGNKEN
UniProt O14625, residues 22-94: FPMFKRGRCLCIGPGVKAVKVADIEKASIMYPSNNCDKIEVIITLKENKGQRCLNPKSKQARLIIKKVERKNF
UniProt Q07325, residues 23-125: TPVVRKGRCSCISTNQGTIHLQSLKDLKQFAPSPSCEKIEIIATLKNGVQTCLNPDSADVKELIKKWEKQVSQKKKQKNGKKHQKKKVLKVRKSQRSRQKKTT
UniProt P19875, residues 35-107: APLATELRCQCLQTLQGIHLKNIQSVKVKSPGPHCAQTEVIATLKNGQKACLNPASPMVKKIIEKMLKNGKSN
UniProt P09341, residues 35-107: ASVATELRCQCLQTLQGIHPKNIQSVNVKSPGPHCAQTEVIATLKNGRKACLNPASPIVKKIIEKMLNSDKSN
UniProt P02775, residues 59-128: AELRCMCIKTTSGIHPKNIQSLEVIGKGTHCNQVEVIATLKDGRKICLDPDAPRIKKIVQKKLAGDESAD
UniProt P55773, residues 22-120: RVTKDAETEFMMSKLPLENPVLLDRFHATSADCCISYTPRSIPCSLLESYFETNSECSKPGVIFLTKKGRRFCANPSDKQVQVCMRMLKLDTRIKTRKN
UniProt P19876, residues 35-107: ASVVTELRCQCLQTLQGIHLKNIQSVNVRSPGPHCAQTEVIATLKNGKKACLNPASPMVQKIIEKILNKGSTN
UniProt P02776, residues 32-101: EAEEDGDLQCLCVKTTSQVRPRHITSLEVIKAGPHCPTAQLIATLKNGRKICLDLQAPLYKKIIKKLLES
UniProt O00585, residues 24-134: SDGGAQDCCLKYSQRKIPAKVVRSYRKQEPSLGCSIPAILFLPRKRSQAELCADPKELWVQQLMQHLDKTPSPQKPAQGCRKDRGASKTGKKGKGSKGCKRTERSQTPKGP
UniProt Q9Y4X3, residues 25-112: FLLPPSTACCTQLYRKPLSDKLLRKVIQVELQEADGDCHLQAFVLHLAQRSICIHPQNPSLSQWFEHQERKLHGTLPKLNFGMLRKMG
UniProt P10145, residues 28-99: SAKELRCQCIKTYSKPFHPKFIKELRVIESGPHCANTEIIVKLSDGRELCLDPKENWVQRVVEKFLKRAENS
UniProt P78556, residues 27-96: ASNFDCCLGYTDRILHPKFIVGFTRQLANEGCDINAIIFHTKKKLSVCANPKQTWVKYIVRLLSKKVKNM
UniProt P48061, residues 22-89: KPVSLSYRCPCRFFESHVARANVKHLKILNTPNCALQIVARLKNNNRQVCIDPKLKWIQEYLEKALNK
UniProt P02778, residues 22-98: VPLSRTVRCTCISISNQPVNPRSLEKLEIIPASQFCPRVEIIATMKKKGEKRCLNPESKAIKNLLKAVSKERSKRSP

Columns and labels:
[1] = target: T1, CX3CL1_HUMAN (human), P78423; experiment: BLI, empty cell the 12th table, row 95, column 4; settings: remark: other sources report otherwise
T1 chain: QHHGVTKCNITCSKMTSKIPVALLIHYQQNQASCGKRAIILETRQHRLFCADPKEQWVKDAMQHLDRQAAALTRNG

[2] = target: T2, CCL19_HUMAN (human), Q99731; experiment: BLI, empty cell the 12th table, row 85, column 4; settings: remark: other sources report otherwise
T2 chain: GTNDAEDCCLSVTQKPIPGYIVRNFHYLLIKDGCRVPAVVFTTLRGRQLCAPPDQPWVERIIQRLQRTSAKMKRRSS

[3] = target: T3, CCL5_HUMAN (human), P13501; experiment: BLI, empty cell the 12th table, row 75, column 4; settings: remark: other sources report otherwise
T3 chain: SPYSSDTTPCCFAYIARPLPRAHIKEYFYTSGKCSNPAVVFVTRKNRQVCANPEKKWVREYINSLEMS

[4] = target: T4, CCL15_HUMAN (human), Q16663; experiment: BLI, empty cell the 12th table, row 81, column 3; settings: remark: other sources report otherwise
T4 chain: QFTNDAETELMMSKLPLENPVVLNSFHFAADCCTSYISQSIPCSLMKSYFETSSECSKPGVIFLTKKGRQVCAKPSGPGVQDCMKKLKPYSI

CXCL13_HUMAN (human) [5] = target: CXCL13_HUMAN (human) (UniProt O43927); experiment: BLI, empty cell the 12th table, row 108, column 4
CCL28_HUMAN (human) [6] = target: CCL28_HUMAN (human) (UniProt Q9NRJ3); experiment: BLI, empty cell the 12th table, row 94, column 4
CXCL14_HUMAN (human) [7] = target: CXCL14_HUMAN (human) (UniProt O95715); experiment: BLI, empty cell the 12th table, row 109, column 4
CCL24_HUMAN (human) [8] = target: CCL24_HUMAN (human) (UniProt O00175); experiment: BLI, empty cell the 12th table, row 90, column 4
CXCL6_HUMAN (human) [9] = target: CXCL6_HUMAN (human) (UniProt P80162); experiment: BLI, empty cell the 12th table, row 101, column 4
CXCL5_HUMAN (human) [10] = target: CXCL5_HUMAN (human) (UniProt P42830); experiment: BLI, empty cell the 12th table, row 100, column 4
CXCL11_HUMAN (human) [11] = target: CXCL11_HUMAN (human) (UniProt O14625); experiment: BLI, empty cell the 12th table, row 106, column 4
CXCL9_HUMAN (human) [12] = target: CXCL9_HUMAN (human) (UniProt Q07325); experiment: BLI, empty cell the 12th table, row 104, column 4
CXCL2_HUMAN (human) [13] = target: CXCL2_HUMAN (human) (UniProt P19875); experiment: BLI, empty cell the 12th table, row 97, column 4
CXCL1_HUMAN (human) [14] = target: CXCL1_HUMAN (human) (UniProt P09341); experiment: BLI, empty cell the 12th table, row 96, column 4
CXCL7_HUMAN (human) [15] = target: CXCL7_HUMAN (human) (UniProt P02775); experiment: BLI, empty cell the 12th table, row 102, column 4
CCL15_HUMAN (human) = CCL15_HUMAN (human) (UniProt Q16663); experiment: BLI, empty cell the 12th table, row 81, column 4
CCL23_HUMAN (human) [16] = target: CCL23_HUMAN (human) (UniProt P55773); experiment: BLI, empty cell the 12th table, row 89, column 4
XCL1_HUMAN (human) [17] = target: T5, XCL1_HUMAN (human) (UniProt P47992); experiment: BLI, empty cell the 12th table, row 113, column 4
T5 sequence: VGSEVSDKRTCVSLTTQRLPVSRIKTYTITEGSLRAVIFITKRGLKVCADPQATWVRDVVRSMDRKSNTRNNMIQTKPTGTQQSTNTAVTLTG

CXCL3_HUMAN (human) [18] = target: CXCL3_HUMAN (human) (UniProt P19876); experiment: BLI, empty cell the 12th table, row 98, column 4
CXCL4_HUMAN (human) [19] = target: CXCL4_HUMAN (human) (UniProt P02776); experiment: BLI, empty cell the 12th table, row 99, column 4
CCL21_HUMAN (human) [20] = target: CCL21_HUMAN (human) (UniProt O00585); experiment: BLI, empty cell the 12th table, row 87, column 4
CCL27_HUMAN (human) [21] = target: CCL27_HUMAN (human) (UniProt Q9Y4X3); experiment: BLI, empty cell the 12th table, row 93, column 4
CCL27_HUMAN (human) [22] = target: CCL27_HUMAN (human) (UniProt Q9Y4X3); experiment: BLI, empty cell the 12th table, row 93, column 3
XCL1_HUMAN (human) [23] = target: T5, XCL1_HUMAN (human); experiment: BLI, empty cell the 12th table, row 113, column 3
CXCL9_HUMAN (human) [24] = target: CXCL9_HUMAN (human) (UniProt Q07325); experiment: BLI, empty cell the 12th table, row 104, column 3
CXCL14_HUMAN (human) [25] = target: CXCL14_HUMAN (human) (UniProt O95715); experiment: BLI, empty cell the 12th table, row 109, column 3
CXCL2_HUMAN (human) [26] = target: CXCL2_HUMAN (human) (UniProt P19875); experiment: BLI, empty cell the 12th table, row 97, column 3
CCL19_HUMAN (human) = CCL19_HUMAN (human) (UniProt Q99731); experiment: BLI, empty cell the 12th table, row 85, column 3
CCL24_HUMAN (human) [27] = target: CCL24_HUMAN (human) (UniProt O00175); experiment: BLI, empty cell the 12th table, row 90, column 3
CCL21_HUMAN (human) [28] = target: CCL21_HUMAN (human) (UniProt O00585); experiment: BLI, empty cell the 12th table, row 87, column 3
CXCL8_HUMAN (human) = CXCL8_HUMAN (human) (UniProt P10145); experiment: BLI, empty cell the 12th table, row 103, column 3
CCL20_HUMAN (human) = CCL20_HUMAN (human) (UniProt P78556); experiment: BLI, empty cell the 12th table, row 86, column 3
CXCL4_HUMAN (human) [29] = target: CXCL4_HUMAN (human) (UniProt P02776); experiment: BLI, empty cell the 12th table, row 99, column 3
CX3CL1_HUMAN (human) = CX3CL1_HUMAN (human) (UniProt P78423); experiment: BLI, empty cell the 12th table, row 95, column 3
CXCL13_HUMAN (human) [30] = target: CXCL13_HUMAN (human) (UniProt O43927); experiment: BLI, empty cell the 12th table, row 108, column 3
CXCL12_HUMAN (human) = CXCL12_HUMAN (human) (UniProt P48061); experiment: BLI, empty cell the 12th table, row 107, column 3
CXCL7_HUMAN (human) [31] = target: CXCL7_HUMAN (human) (UniProt P02775); experiment: BLI, empty cell the 12th table, row 102, column 3
CXCL6_HUMAN (human) [32] = target: CXCL6_HUMAN (human) (UniProt P80162); experiment: BLI, empty cell the 12th table, row 101, column 3
CXCL3_HUMAN (human) [33] = target: CXCL3_HUMAN (human) (UniProt P19876); experiment: BLI, empty cell the 12th table, row 98, column 3
CCL23_HUMAN (human) [34] = target: CCL23_HUMAN (human) (UniProt P55773); experiment: BLI, empty cell the 12th table, row 89, column 3
CXCL11_HUMAN (human) [35] = target: CXCL11_HUMAN (human) (UniProt O14625); experiment: BLI, empty cell the 12th table, row 106, column 3
CXCL10_HUMAN (human) = CXCL10_HUMAN (human) (UniProt P02778); experiment: BLI, empty cell the 12th table, row 105, column 3
CXCL1_HUMAN (human) [36] = target: CXCL1_HUMAN (human) (UniProt P09341); experiment: BLI, empty cell the 12th table, row 96, column 3
CCL28_HUMAN (human) [37] = target: CCL28_HUMAN (human) (UniProt Q9NRJ3); experiment: BLI, empty cell the 12th table, row 94, column 3
CXCL5_HUMAN (human) [38] = target: CXCL5_HUMAN (human) (UniProt P42830); experiment: BLI, empty cell the 12th table, row 100, column 3

Measured: binding

B1: P546_AMBCA, A0A023FBW7 22-118 (protein)
chain: ENTQQEEEDYDYGTDTCPFPVLANKTNKAKFVGCHQKCNGGDQKLTDGTACYVVERKVWDRMTPMLWYSCPLGECKNGVCEDLRKKEECRKGNGEEK
no binding (tested: 300 nM): [1] | [2] | [3]

B2: P974_AMBCA, A0A023FDY8 22-118 (protein)
chain: B1 chain with E8Q, S69E, E88D
no binding (tested: 300 nM): [4]

B3: P546_AMBCA (protein)
chain: B1 chain
no binding (tested: 300 nM): CXCL13_HUMAN (human) [5] | CCL28_HUMAN (human) [6] | CXCL14_HUMAN (human) [7] | CCL24_HUMAN (human) [8] | CXCL6_HUMAN (human) [9] | CXCL5_HUMAN (human) [10] | CXCL11_HUMAN (human) [11] | CXCL9_HUMAN (human) [12] | CXCL2_HUMAN (human) [13] | CXCL1_HUMAN (human) [14] | CXCL7_HUMAN (human) [15] | CCL15_HUMAN (human) | CCL23_HUMAN (human) [16] | XCL1_HUMAN (human) [17] | CXCL3_HUMAN (human) [18] | CXCL4_HUMAN (human) [19] | CCL21_HUMAN (human) [20] | CCL27_HUMAN (human) [21]

B4: P974_AMBCA (protein)
chain: B1 chain with E8Q, S69E, E88D
no binding (tested: 300 nM): CCL27_HUMAN (human) [22] | XCL1_HUMAN (human) [23] | CXCL9_HUMAN (human) [24] | CXCL14_HUMAN (human) [25] | CXCL2_HUMAN (human) [26] | CCL19_HUMAN (human) | CCL24_HUMAN (human) [27] | CCL21_HUMAN (human) [28] | CXCL8_HUMAN (human) | CCL20_HUMAN (human) | CXCL4_HUMAN (human) [29] | CX3CL1_HUMAN (human) | CXCL13_HUMAN (human) [30] | CXCL12_HUMAN (human) | CXCL7_HUMAN (human) [31] | CXCL6_HUMAN (human) [32] | CXCL3_HUMAN (human) [33] | CCL23_HUMAN (human) [34] | CXCL11_HUMAN (human) [35] | CXCL10_HUMAN (human) | CXCL1_HUMAN (human) [36] | CCL28_HUMAN (human) [37] | CXCL5_HUMAN (human) [38]
